No constants are given. Whether binding was seen depends on the method and setting. Some binding calls cover weakened binding; strength is not graded here.

By UniProt entry, the sequences of proteins in these tests, tags left out. Residues count along the entry.
UniProt P13020, residues 26-780: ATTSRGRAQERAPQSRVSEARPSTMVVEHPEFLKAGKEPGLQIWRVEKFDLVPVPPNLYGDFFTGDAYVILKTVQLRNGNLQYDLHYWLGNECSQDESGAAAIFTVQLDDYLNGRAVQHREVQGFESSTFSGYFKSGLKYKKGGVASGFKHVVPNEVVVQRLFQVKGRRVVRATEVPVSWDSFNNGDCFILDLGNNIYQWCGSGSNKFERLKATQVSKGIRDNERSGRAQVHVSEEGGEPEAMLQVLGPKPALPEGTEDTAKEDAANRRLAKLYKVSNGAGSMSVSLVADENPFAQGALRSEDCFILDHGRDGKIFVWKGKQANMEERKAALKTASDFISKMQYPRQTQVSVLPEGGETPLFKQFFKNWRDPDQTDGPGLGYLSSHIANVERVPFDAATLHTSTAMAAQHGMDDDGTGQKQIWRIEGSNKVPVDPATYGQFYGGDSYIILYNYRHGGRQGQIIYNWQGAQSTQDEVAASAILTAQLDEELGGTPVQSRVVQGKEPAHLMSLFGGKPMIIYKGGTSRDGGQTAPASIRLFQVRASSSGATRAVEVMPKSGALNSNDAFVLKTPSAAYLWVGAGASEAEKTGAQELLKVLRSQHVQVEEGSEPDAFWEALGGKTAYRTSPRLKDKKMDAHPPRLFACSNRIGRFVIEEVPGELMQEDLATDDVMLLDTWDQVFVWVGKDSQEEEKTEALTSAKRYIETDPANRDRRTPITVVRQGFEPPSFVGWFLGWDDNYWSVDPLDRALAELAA

This assay addresses gelsolin (mouse (hippocampus of DIR-KI mice)) (UniProt P13020). In words: PLA assay in hippocampus (FIG. 20D).

B1: DNA damage-inducible transcript 4-like (DDIT4L) intron retention spliced product (DIR) protein (protein)
chain: MVATGSLSSKNPASISELLDCGYHPESLLSGECPRCPPFSPPKVGASGSIGWAGFRLPPLPLCRRCHKIHLRRLLSKFSNIFSP
For B1, the binding entry is listed as “binds”.

For the origin of these results see patent publication US20250060376A1.
